Hit rate of the full screen: of about 580,000 compounds, about 6,100 (1.1%) were called active. Inconclusive means that the source gave no clear call. Such entries were picked first, then a sample of the others. Calls follow the shape of the dose curve; as a rule, active = well fitted inhibition curve with a large enough effect; inconclusive = small, poorly fitted or top-dose-only effect, or another doubt; inactive = no such curve, though single readings can be large or run the other way. Potencies of inconclusive entries are doubtful fits and often do not repeat.
Molecular target: Polyunsaturated fatty acid lipoxygenase ALOX12 (Homo sapiens) (UniProt P18054)
Assay: Primary qHTS assay for inhibitors of human arachidonate 12S-lipoxygenase (ALOX12): Round 2
Details: purified 12hLO, xylenol orange hydroperoxide absorbance; activity change, negative = inhibition: at 108 µM (top of the series) unless noted
Outline: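 Hydroperoxide product was detected by ferrous iron/xylenol orange as the 573 to 405 nm absorbance ratio. Arachidonic acid at 40 uM (final) was turned over for 30 min at room temperature by 150 nM human 12hLO, pH 7.0 Hepes buffer, after 15 min compound preincubation.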
% is scaled to controls: 0 for no effect and ±100 for the full control effect; potency is read from the fitted curve at half-maximal effect.

Amino acid sequences for entries named in this document (tags omitted).
UniProt P18054, whole entry, looked up: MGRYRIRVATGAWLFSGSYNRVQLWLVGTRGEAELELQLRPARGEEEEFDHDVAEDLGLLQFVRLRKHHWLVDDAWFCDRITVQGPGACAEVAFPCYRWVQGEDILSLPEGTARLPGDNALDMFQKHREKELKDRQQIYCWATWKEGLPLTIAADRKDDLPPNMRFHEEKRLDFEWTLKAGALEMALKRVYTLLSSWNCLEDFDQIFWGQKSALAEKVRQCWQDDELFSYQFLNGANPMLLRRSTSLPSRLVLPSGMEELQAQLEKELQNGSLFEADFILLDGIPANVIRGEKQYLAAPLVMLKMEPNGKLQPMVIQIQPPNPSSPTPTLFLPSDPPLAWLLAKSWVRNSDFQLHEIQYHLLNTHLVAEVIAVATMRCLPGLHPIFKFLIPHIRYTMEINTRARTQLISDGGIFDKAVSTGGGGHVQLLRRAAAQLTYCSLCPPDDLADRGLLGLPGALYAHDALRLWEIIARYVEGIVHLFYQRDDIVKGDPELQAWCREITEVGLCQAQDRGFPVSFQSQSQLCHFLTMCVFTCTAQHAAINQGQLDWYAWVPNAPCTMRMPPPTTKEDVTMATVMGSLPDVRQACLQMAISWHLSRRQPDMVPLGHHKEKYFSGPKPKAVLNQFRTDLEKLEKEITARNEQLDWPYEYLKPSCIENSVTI

With `CCc1ccc(OCc2n[nH]c(=S)n2C(C)CCCC(C)C)cc1` (centres undefined) as the compound, how does the Potency read?
Its Potency is active: 35.5 µM.

Which Potency does the source give for `COc1cc(OC)c(OC)cc1/C=C/c1nc2cc3ccccc3cc2c(=O)n1-c1ccc(Cl)cc1` here?
Its Potency is inconclusive: 126 µM [inhibitor, partial curve, poor fit].

How did the Potency turn out when `CCOc1ccccc1NC(=O)CSc1nc2c(oc3ccccc32)c(=O)n1-c1ccc(C)c(C)c1` was run?
The Potency was inconclusive: 79.4 µM [inhibitor, partial curve, poor fit].

`COc1cc(CN2CCNC(=O)C2CC(=O)O)cc(OC)c1` (centres undefined) was tested. Which Potency did it give?
The Potency was inconclusive: 1.78 µM [inhibitor, full curve, poor fit].

How did the Potency turn out when `CCOC(=O)Cc1csc(NC(=O)c2ccc(OC)c(OC)c2)n1` was run?
The Potency was inconclusive: 5.62 µM [inhibitor, partial curve, poor fit].

How did the Potency turn out when `COc1ccc(OC)c(C2/C(=C(/O)c3ccc(C)cc3)C(=O)C(=O)N2Cc2ccco2)c1` (centres undefined) was run?
The Potency was inconclusive: 56.2 µM [inhibitor, partial curve, poor fit].

Which “activity change, negative = inhibition” value does the source give for `CCCCOc1ccc(CSc2nc(C)[nH]c2[N+](=O)[O-])cc1[N+](=O)[O-]` here?
Its value is inactive: 192%.

`Cc1ccccc1/C=C(/C#N)C(=O)c1c(C)[nH]c2ccccc12` was tested. Which Potency did it give?
The Potency was inconclusive: 39.8 µM [inhibitor, partial curve, poor fit].

How did the “activity change, negative = inhibition” value turn out when `CCNC(=O)[C@@H]1C[C@H](N)CN1C(=O)Cc1ccc(OC)cc1OC` was run?
Its value is inactive: 36.7%.

Which Potency does the source give for `Cc1cc(Cl)ccc1OCC(=O)N1CCC(c2n[nH]c(=O)n2-c2ccccc2)CC1` here?
Its Potency is inconclusive: 25.1 µM [inhibitor, full curve].

How did the Potency turn out when `CSc1ncnc2c1ncn2CCCNCc1ccc2c(c1)OCO2` was run?
Its Potency is inconclusive: 44.7 µM [inhibitor, partial curve, poor fit].

For `CCCN1C(=O)C(CC(=O)N2CCOCC2)Sc2ncccc21` (centres undefined), which “activity change, negative = inhibition” value is on record?
The value was inactive: -1.93%.

Which “activity change, negative = inhibition” value does the source give for `COc1ccc(CC(=O)Nc2cc(S(=O)(=O)N3CCOCC3)ccc2N2CCOCC2)cc1OC` here?
Its value is inactive: -3.27%.

Which Potency does the source give for `O=C(CCC1N=C2c3ccccc3N=C(SCc3ccc(F)cc3)N2C1=O)NCc1cccs1` (centres undefined) here?
The Potency was inconclusive: 100 µM [inhibitor, partial curve, poor fit].

`CCOc1cc(NC(=O)c2ccc(Cn3cc(Br)cn3)cc2)ccc1OC(F)F` was tested. Which “activity change, negative = inhibition” value did it give?
Its value is inactive: 3.15%.

For `Cn1c(=O)c2c(-c3ccccc3)n3c(c2n(C)c1=O)C(c1ccc(O)cc1)OCC3(C)C` (centres undefined), which Potency is on record?
The Potency was inconclusive: 89.1 µM [inhibitor, partial curve, poor fit].

With `COc1ccc(Br)cc1C=NNS(=O)(=O)c1ccc(C)cc1` as the compound, how does the Potency read?
Its Potency is inconclusive: 56.2 µM [inhibitor, partial curve, poor fit].

With `Cc1ccc(C2=NC3(CCN(C(=O)c4ccc(C)c(F)c4)CC3)ON2)cc1` as the compound, how does the Potency read?
The Potency was inconclusive: 12.6 µM [inhibitor, full curve, poor fit].

Which Potency does the source give for `O=C(COc1ccc(Cl)cc1Cl)NNC(=S)Nc1ccc(F)cc1` here?
The Potency was inconclusive: 50.1 µM [inhibitor, partial curve, poor fit].

How did the Potency turn out when `O=C(O)CSc1ccc(C(=O)/C=C/c2ccc3c(c2)OCCO3)cc1F` was run?
Its Potency is inconclusive: 35.5 µM [inhibitor, partial curve, poor fit].

How did the Potency turn out when `CCN1CCC(CNCc2cccs2)C1` (centres undefined) was run?
The Potency was inconclusive: 0.251 µM [inhibitor, full curve, poor fit].

Which Potency does the source give for `CCOC(=O)c1c(C)n(-c2ccc(OC)cc2)c2c(C/C(C)=N/O)c(Br)c(OC)c(O)c12` here?
Its Potency is inconclusive: 3.98 µM [inhibitor, full curve, poor fit].

Which Potency does the source give for `Cn1c(=O)c2nc(SCCC(=O)O)n(C)c2n(C)c1=O` here?
The Potency was inconclusive: 2.24 µM [inhibitor, full curve, poor fit].

Which “activity change, negative = inhibition” value does the source give for `O=S(=O)(Nc1cccc(S(=O)(=O)N2CCOCC2)c1)c1ccc2c(c1)OCCO2` here?
The value was inactive: -4.64%.

How did the Potency turn out when `Fc1ccc(C(Nc2ccccn2)c2c[nH]c3ccccc23)cc1` (centres undefined) was run?
Its Potency is active: 6.31 µM.

With `O=C(CCCn1c(=O)oc2ccccc21)Nc1nc2ccccc2s1` as the compound, how does the Potency read?
The Potency was inconclusive: 56.2 µM [inhibitor, single point].

How did the Potency turn out when `COc1ccc2cc(C(=O)Nc3ccc(NC(=O)Nc4ccccc4)cc3)c(C)nc2c1` was run?
The Potency was inconclusive: 79.4 µM [inhibitor, partial curve, poor fit].

How did the “activity change, negative = inhibition” value turn out when `CCOC(=O)C(NC(=O)[C@@H](NC(=O)c1ccccc1OCC)C(C)C)C(=O)OCC` was run?
Its value is inactive: 38.1%.

With `CC1(C)CC2(CC(c3ccccc3F)c3cc(Cl)c(O)cc3O2)NC(=S)N1` (centres undefined) as the compound, how does the Potency read?
Its Potency is active: 31.6 µM.

For `CC(C)c1ccc(C(=O)NC(=S)NCCCO)cc1`, which Potency is on record?
The Potency was inconclusive: 50.1 µM [inhibitor, partial curve, poor fit].

How did the Potency turn out when `Cc1ccc(C(=O)O)cc1-c1ccc(/C=C2/NC(=O)N(c3ccccc3)C2=O)o1` was run?
The Potency was inconclusive: 15.8 µM [inhibitor, full curve].

Which Potency does the source give for `O=C(NCc1ccc(Cl)nc1)c1csc(COCCO)n1` here?
Its Potency is inconclusive: 100 µM [inhibitor, partial curve, poor fit].

How did the Potency turn out when `O=C(C1CCCC1)N1CCC2(CCCN(Cc3cccc(F)c3F)C2)C1` (centres undefined) was run?
Its Potency is inconclusive: 70.8 µM [inhibitor, partial curve, poor fit].

How did the Potency turn out when `CC(C)c1ccc(NC(=O)C2CCCN(S(=O)(=O)c3cccc4cccnc34)C2)cc1` (centres undefined) was run?
Its Potency is inconclusive: 100 µM [inhibitor, single point].

Which Potency does the source give for `Cc1nn(CC(=O)Nc2ccc3c(c2)CCC3)c(C)c1[N+](=O)[O-]` here?
Its Potency is inconclusive: 89.1 µM [inhibitor, single point].

How did the Potency turn out when `Cc1nnc(N/N=C/c2ccco2)n1N` was run?
The Potency was inconclusive: 1.58 µM [inhibitor, full curve, poor fit].

For `C=CCN=C1N[C@@H](c2cccc(C(F)(F)F)c2)C(C(=O)OC)=C(C)N1CC`, which Potency is on record?
Its Potency is inconclusive: 44.7 µM [inhibitor, partial curve, poor fit].

`Cc1ccc(-c2c(-c3cn4ccc(C)cc4n3)c(=O)n(C)c(=O)n2C)cc1` was tested. Which Potency did it give?
The Potency was inconclusive: 141 µM [inhibitor, partial curve, poor fit].

For `O=C(CSc1nnnn1Cc1ccccc1)c1ccccc1`, which Potency is on record?
The Potency was inconclusive: 50.1 µM [inhibitor, partial curve, poor fit].

— PubChem BioAssay AID1671190 (National Center for Advancing Translational Sciences (NCATS), 2021)
